Screening data, single-dose tests

The chains behind the UniProt entries cited, without tags or fusion partners. Residues count along the entry.
UniProt P9WFT3, whole entry: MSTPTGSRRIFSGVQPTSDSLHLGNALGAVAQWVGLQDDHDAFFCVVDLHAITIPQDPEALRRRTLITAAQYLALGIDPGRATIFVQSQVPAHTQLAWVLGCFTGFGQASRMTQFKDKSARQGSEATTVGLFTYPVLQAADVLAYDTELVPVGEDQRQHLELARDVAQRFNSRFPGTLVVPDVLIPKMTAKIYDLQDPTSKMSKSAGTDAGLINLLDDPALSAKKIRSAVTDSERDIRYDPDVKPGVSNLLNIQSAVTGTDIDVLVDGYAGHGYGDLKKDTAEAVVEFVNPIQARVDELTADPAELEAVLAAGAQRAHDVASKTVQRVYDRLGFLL
UniProt A4I591, 1-473: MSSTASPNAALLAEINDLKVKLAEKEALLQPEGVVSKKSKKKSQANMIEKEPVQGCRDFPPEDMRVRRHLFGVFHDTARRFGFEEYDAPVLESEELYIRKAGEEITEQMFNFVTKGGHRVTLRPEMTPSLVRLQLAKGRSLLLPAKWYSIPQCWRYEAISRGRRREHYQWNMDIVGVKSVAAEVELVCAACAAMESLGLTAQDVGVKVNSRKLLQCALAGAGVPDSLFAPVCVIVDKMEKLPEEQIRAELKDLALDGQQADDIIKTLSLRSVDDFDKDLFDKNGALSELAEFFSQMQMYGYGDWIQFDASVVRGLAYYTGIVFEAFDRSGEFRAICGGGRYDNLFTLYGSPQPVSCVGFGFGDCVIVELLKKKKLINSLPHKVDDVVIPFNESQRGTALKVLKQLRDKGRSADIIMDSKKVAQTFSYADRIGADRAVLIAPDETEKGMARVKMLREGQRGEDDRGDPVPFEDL

Each number is a percent effect as filed. How 0% and 100% were set is not recorded. Most values in the screen are low, and negative values occur. This is an unselected part of the compounds tested. A dash means the value is not listed here; it may have been measured.

A: 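Enzyme assay of tryptophanyl-tRNA synthetase; the read-out is not stated. Target: Tryptophan-tRNA ligase, Mycobacterium tuberculosis (UniProt P9WFT3). Compounds at 10 µM. Higher most likely means stronger inhibition; the record gives no direction and few retests gave an IC50. About 65,000 compounds were tested under these conditions; 0.098% (about 64) showed 50% or more at least once.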
B: 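Histidine-tRNA ligase, Leishmania infantum (UniProt A4I591). Enzyme assay of histidyl-tRNA synthetase; the read-out is not stated. Tested at 30 µM. Higher reads as stronger inhibition (inferred: compounds with an IC50 in retests scored well above the rest). The assay is labelled LdHisRS but filed under L. infantum. Of about 69,000 compounds tested this way, about 410 (0.6%) reached 50% or more in at least one test.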

| compound | A | B |
|---|---|---|
| `CNC(=O)CCc1cc(C)nc(C2CCCN2)c1` (stereo not given) | 1.589% | 11.11% |
| `Cn1c(CCCNC(=O)Nc2cn[nH]c2)nc2ccccc21` | 1.12% | 7.143% |
| `CCN1CCOCC12CCN(c1cnccn1)CC2` | - | 8.108% |
| `Cc1cc(CNc2ccccc2N2CCCCC2)no1` | -0.7712% | -2.469% |
| `Cc1nc(C)c(Cn2ccnc2-c2cc(CN(C)C)cs2)s1` | -2.429% | 4.425% |
| `COC(=O)NCC(=O)NC1(C)CCc2ccccc2C1` (stereo not given) | 2.721% | 17.7% |
| `Cc1cc(C)cc(OCC(O)CN2CCN(c3nccs3)CC2)c1` (stereo not given) | -1.376% | -0.8929% |
| `Cc1ccc(C(=O)N(C)Cc2nccn2CC(F)(F)F)cn1` | 1.527% | 10.96% |
| `CNC(=O)c1cc2c(nc1NCC1CC1)CCN(c1ccncn1)CC2` | 1.206% | 5.825% |
| `Cc1nc(CN2CCO[C@@H]3CN(Cc4ccsc4)C[C@@H]3C2)cs1` | -1.569% | 16.36% |
| `Cc1noc(C)c1CN(C)C(=O)c1cnc(C2CC2)nc1O` | -0.7452% | 8.219% |
| `CN1CCN(S(=O)(=O)C2CC2)Cc2cccnc21` | - | 1.98% |
| `COc1ccc(F)cc1C(=O)N1CC(c2ccncc2)C1` | 1.728% | 17.78% |
| `COCCN1CCC(CNC(=O)C2(c3ccc(Br)cc3)CCCC2)C1` (stereo not given) | -6.823% | 20.54% |
| `O=C(CCNC1(c2nccs2)CCCC1)N1CCOCC1` | -1.947% | -3.896% |
| `COC(=O)CN1CCCN(C(=O)CCOc2cccc(C)c2C)CC1` | -1.719% | 13.56% |
| `CC(C)CCC(=O)N1CCCC1c1nnc2n1CCCCC2` (stereo not given) | -0.3228% | 17.65% |
| `CN(Cc1ccc2c(c1)OCO2)Cc1cscn1` | 0.9031% | 1.55% |
| `Cc1nc(CN(C)Cc2nc(-c3ccncc3)no2)co1` | 1.941% | 16.67% |
| `CCc1nc(C2CCCN2Cc2nccn2CC(F)(F)F)no1` (stereo not given) | 22.84% | 5.357% |
| `O=C(c1ccco1)N1CCOCC2(C1)CN(c1ccoc1)C(=O)CO2` (stereo not given) | -8.067% | -6.944% |
| `O=c1ccc2c(n1Cc1ccncc1)CCN(C1CCOC1)CC2` (stereo not given) | -5.307% | 12% |
| `CN1C(=O)C2(CCN(S(=O)(=O)C3CC3)CC2)c2ccccc21` | 1.402% | 3.448% |
| `O=C(c1ccc(O)nc1)N1CCC(Nc2cccnn2)CC1` | 1.129% | 9.735% |
| `CCc1[nH]ncc1C(=O)N1CCCN(Cc2nccn2C(C)C)CC1` | -3.476% | 21.3% |
| `CS(=O)(=O)N[C@H]1CCO[C@]2(CCN(CC3CCOCC3)C2)C1` | -8% | 11.11% |
| `CCNC(=O)[C@@H]1CN(Cc2ccccc2)C[C@H]1C(=O)c1ccc(F)cc1` | -2.285% | 11.19% |
| `Cn1cc(CN2CCc3ccc(=O)n(Cc4ccncc4)c3CC2)cn1` | - | 15.38% |
| `COCCNC(=O)c1cc2c(s1)CCN2S(C)(=O)=O` | -4.344% | -1.389% |
| `Cc1cc(CN2CCCC2Cn2cncn2)no1` (stereo not given) | 4.232% | 4.255% |
| `COc1ccc(N2CCN(CC(O)c3ccc(C)cc3C)CC2)cc1` (stereo not given) | 2.795% | 13.16% |
| `CCN1CCN(C(=O)c2cc(C(F)(F)F)n[nH]2)[C@H]2CS(=O)(=O)C[C@H]21` | 5.982% | 8.434% |
| `CN(Cc1nc(COc2ccccc2)no1)CC1Cc2ccccc2O1` (stereo not given) | -1.341% | 13.7% |
| `CN(C)Cc1noc2c1CN(C(=O)c1ccncc1)CC2` | 3.032% | 9.402% |
| `c1cnc(N2CCC(c3csc(Nc4cnccn4)n3)CC2)nc1` | -11.69% | 8.054% |
| `COc1ccc(-c2nnc(C(C)N3CCOCC3)o2)cc1` (stereo not given) | -4.321% | 17.81% |
| `CC(C(=O)N1CCc2ccccc2C1)n1cc(Br)cn1` (stereo not given) | 2.9% | 16.04% |
| `CCc1ncnc2c1CCN(S(=O)(=O)c1ccccc1)CC2` | - | 9.901% |
| `COC(C)c1nc(CN2CCCNCC2)cs1` (stereo not given) | -0.3915% | 8.065% |
| `Cc1nccn1CCN(C)C(=O)C1CCN(C(=O)C2CCC2)CC1` | 0.6441% | -6.557% |
| `O=C(NC1CC1)NC(c1ccc(F)cc1)C1CC1` (stereo not given) | 1.548% | 28.57% |
| `CC(C)NC(=O)C(C)NC(=O)N1CCN(c2ccc(Cl)cc2)CC1` (stereo not given) | 0.618% | 0% |
| `CN1CCN(c2cc(CNC(=O)Cn3cccn3)ccn2)CC1` | 25.3% | 17.86% |
| `Cc1ccc(-n2ccnc2)c(C(=O)NCCOCC(F)(F)F)c1` | 5.091% | 17.17% |
| `Cc1cnn(CC2CN(CCc3ccncc3)CCO2)c1` (stereo not given) | 1.069% | 13.46% |
| `CC(C)N1CCC(NCc2cccnc2N(C)Cc2ccccc2)CC1` | -1.243% | 14.56% |
| `CNC(=O)c1ccc2c(OC)n(C)nc2c1` | -6.915% | 15.65% |
| `c1csc(CN2CCC3(CC2)COCCN3CC2CC2)n1` | -4.299% | 5.263% |
| `Cc1cnn(C2CCCN(C(=O)c3cn4ccccc4n3)C2)c1` (stereo not given) | 19.17% | 10.53% |
| `CCCS(=O)(=O)N1C[C@H]2C[C@H](C(=O)N3CCOCC3)[C@@H](C1)O2` | -0.4361% | 7.692% |
| `Cc1cccc(CN2C[C@H]3CCC[C@@]3(COCc3csc(C)n3)C2)n1` | -3.787% | 15.79% |
| `Cc1cccc(CS(=O)(=O)c2nnc([C@@H](N)Cc3ccccc3)o2)c1` | -3.479% | -17.39% |
| `Cc1cnn(C2CN(CC(=O)NCCc3c[nH]c4ccccc34)C2)c1` | 31.41% | 14.91% |
| `CCOCC1CN(C(=O)c2cccs2)Cc2nn(C)cc21` (stereo not given) | 1.302% | 5.714% |
| `Fc1ccc2[nH]c(C3CCCN3CCCn3cccn3)nc2c1` (stereo not given) | -1.053% | 3.2% |
| `CSCCCNC(=O)c1coc(Cn2cnc3ccccc32)n1` | 9.404% | -2.198% |
| `c1ccc(C2CCCN(c3ncnc4c3CCNC4)CC2)cc1` (stereo not given) | 2.194% | 42.86% |
| `O=C(NC1CCC(O)CC1)c1cnc2c(cnn2C2CCCC2)c1` (stereo not given) | 1.201% | 14.53% |
| `Cc1cc(NC(=O)c2ccc(C)c(F)c2)[nH]n1` | -19.23% | 13.16% |
| `CCC[C@H]1CN(c2nccc(OC)n2)C[C@@H]1NS(=O)(=O)N(C)C` | -5.678% | -1.754% |
| `CCOC(=O)N1CCN(c2nc(C)ncc2CC)CC1` | 3.309% | 12.82% |
| `CC(C)c1nn(C)c(N2CCOCC2)c1CNCc1nncn1C` | 2.311% | 20.48% |
| `CCN1CCc2[nH]cnc2C12CCN(c1ccc(Cl)cn1)CC2` | 5.405% | 18.31% |
| `Cc1cnc(C(=O)N2CCC(C(=O)c3cc(F)ccc3F)CC2)cn1` | -5.266% | 18.58% |
| `COc1ccc(F)cc1C(C)NC(=O)Nc1nnc(C)s1` (stereo not given) | 0% | 11.32% |
| `Cc1cc(Br)c(O)c(-c2nc(N3CCOCC3)sc2C)c1` | - | 8.247% |

5 of the entries, repeated:

| compound | A | B |
|---|---|---|
| `Cc1cc(NC(=O)c2ccc(C)c(F)c2)[nH]n1` | -19.23% | 13.16% |
| `Cc1nc(C)c(Cn2ccnc2-c2cc(CN(C)C)cs2)s1` | -2.429% | 4.425% |
| `Cc1cc(CNc2ccccc2N2CCCCC2)no1` | -0.7712% | -2.469% |
| `CCC[C@H]1CN(c2nccc(OC)n2)C[C@@H]1NS(=O)(=O)N(C)C` | -5.678% | -1.754% |
| `CCc1nc(C2CCCN2Cc2nccn2CC(F)(F)F)no1` (stereo not given) | 22.84% | 5.357% |

From ChEMBL document CHEMBL3988442, “University of Dundee, Small-Polar-MMV Screening Library” (2021).